Assay results reported in PubChem BioAssay AID504834 (National Center for Advancing Translational Sciences (NCATS), 2011).
Out of some 320,000 compounds screened, about 22,000 (6.9%) were called active. This list was built around the results that the source calls inconclusive (neither active nor inactive); the mix of calls is not that of the screen. The call rests on the fitted dose curve; in most records, active means well fitted inhibition curve with a large enough effect; inconclusive means small, poorly fitted or top-dose-only effect, or another doubt; inactive means no such curve, though single readings can be large or run the other way. Where the call is inconclusive, the potency comes from a doubtful curve fit.

experiment: Primary qHTS for delayed death inhibitors of the malarial parasite plastid, 96 hour incubation; settings: P. falciparum luciferase reporter growth; series mostly up to 28.7 µM
Procedure, shortened: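 Two parasite generations (96 h, 37 C, 5% CO2) of compound exposure in infected erythrocytes (0.05% parasitemia, 2% hematocrit). Luciferase-reporter P. falciparum; decreased luminescence indicates inhibited growth, aimed at apicoplast-acting delayed death.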
Potency means the concentration at half of the fitted maximal effect.

Q: With CCN(C(=O)COC(=O)c1cccc(-n2cnnn2)c1)C1CCCCC1 as the molecule, how does the Potency read?
A: Its Potency is “inactive”.

Q: Which Potency does the source give for Cc1ccc(C(=O)NC(=S)Nc2cc(C(F)(F)F)ccc2Cl)cc1 here?
A: The Potency was inconclusive: 18.5 µM [inhibitor, partial curve, poor fit].

Q: For O=C(CSc1nc2c(sc3ccccc32)c(=O)n1Cc1ccco1)NCC1CCCO1 (centres undefined), which Potency is on record?
A: Its Potency is active: 9.28 µM.

Q: For N#Cc1c(-c2ccc(Cl)cc2)c(C#N)c(=O)n(N)c1N, which Potency is on record?
A: Its Potency is inconclusive: 18.5 µM [inhibitor, single point].

Q: With C=CCNC(=O)c1ccc(OC)cc1OC as the molecule, how does the Potency read?
A: The Potency was inconclusive: 0.131 µM [inhibitor, full curve, poor fit].

Q: For CC(C)CCn1c(Sc2nc3ccccc3o2)nc2c1c(=O)[nH]c(=O)n2C, which Potency is on record?
A: The Potency was “inactive”.

Q: Which Potency does the source give for CNC(=O)c1nn(-c2ccc(C)cc2)ccc1=O here?
A: Its Potency is “inactive”.

Q: Which Potency does the source give for COc1ccccc1NC(=O)c1ccc2c(c1)N(CC#N)C(=O)C(C)(C)O2 here?
A: The Potency was active: 11.7 µM.

Q: Which Potency does the source give for CC(NC(=O)c1cncc(Br)c1)c1ccc(S(N)(=O)=O)cc1 (centres undefined) here?
A: Its Potency is inconclusive: 18.5 µM [inhibitor, single point].

Q: With CCOC(=O)N1CCC(NC(=O)C2CCN(S(=O)(=O)c3ccc4c(c3)oc(=O)n4C)CC2)CC1 as the molecule, how does the Potency read?
A: The Potency was “inactive”.

Q: With O=C(CSc1nnc(-c2ccc(Br)o2)n1Cc1ccccc1)c1ccccc1F as the molecule, how does the Potency read?
A: Its Potency is inconclusive: 4.15 µM [inhibitor, partial curve, poor fit].

Q: With COc1ccc(CC(=O)Nc2cccc(C(=O)O)c2C)cc1 as the molecule, how does the Potency read?
A: The Potency was inconclusive: 9.28 µM [inhibitor, single point].

Q: With CCCSc1nnc(N2C(=O)C(O)=C(C(=O)c3ccco3)C2c2ccccc2F)s1 (centres undefined) as the molecule, how does the Potency read?
A: Its Potency is “inactive”.

Q: With COC(=O)c1ccc(C(=O)OC)c(NC(=O)CSCc2ccccc2Br)c1 as the molecule, how does the Potency read?
A: Its Potency is “inactive”.

Q: With COc1ccc(C(=O)OCCN2CCN(C3=NS(=O)(=O)c4ccccc43)CC2)cc1OC as the molecule, how does the Potency read?
A: The Potency was active: 8.28 µM.

Q: With O=C(CCCOC(=O)c1ccc(O)cc1O)c1ccc(Br)cc1 as the molecule, how does the Potency read?
A: Its Potency is “inactive”.

Q: Which Potency does the source give for CN1C(=O)N(C)C(NC(=O)Nc2ccccc2)C1NC(=O)Nc1ccccc1 (centres undefined) here?
A: Its Potency is active: 2.33 µM.

Q: With CC1(C)NC(=O)N(CC(O)COc2ccccc2C(=O)Nc2ccccc2)C1=O (centres undefined) as the molecule, how does the Potency read?
A: The Potency was active: 13.1 µM.

Q: With O=C(Nc1ccc(O)cc1)c1ccc2c(c1)C(=O)N(Cc1ccccc1)C2=O as the molecule, how does the Potency read?
A: The Potency was inconclusive: 10.4 µM [inhibitor, single point].

Q: For Cc1ccc(NC(=O)N2CCCC2C(=O)Nc2ccc3c(c2)OCCO3)cc1 (centres undefined), which Potency is on record?
A: The Potency was “inactive”.

Q: Which Potency does the source give for COc1ccc(CNCc2c(O)c(Cl)cc3c(C)c(C)c(=O)oc23)c(OC)c1 here?
A: The Potency was inconclusive: 11.7 µM [inhibitor, partial curve].

Q: Which Potency does the source give for CN1CCN(C(=S)c2ccc([N+](=O)[O-])cc2)CC1 here?
A: The Potency was inconclusive: 18.5 µM [inhibitor, single point].

Q: For CN(C)CCCNC(=S)N1CCN(c2nc(-c3ccccc3)cs2)CC1, which Potency is on record?
A: Its Potency is “inactive”.

Q: With Cc1ccc(C2=NN(C(=O)c3ccccc3F)C(c3ccccc3F)C2)cc1 (centres undefined) as the molecule, how does the Potency read?
A: The Potency was “inactive”.

Q: Which Potency does the source give for COc1ccc([N+](=O)[O-])cc1N(CC(=O)N1CCCCC1)S(C)(=O)=O here?
A: Its Potency is inconclusive: 2.62 µM [inhibitor, full curve, poor fit].

Q: Which Potency does the source give for COc1ccc2c(c1)[C@H]1[C@H](CO2)[C@H](c2ccccc2)[C@]2(C)C(=O)N[C@H](C)C(=O)N12 here?
A: Its Potency is inconclusive: 3.29 µM [inhibitor, single point].

Q: Which Potency does the source give for CCOC(=O)C1=C(CSc2nccn2C)NC(=O)NC1c1cc(C)ccc1C (centres undefined) here?
A: The Potency was inconclusive: 14.7 µM [inhibitor, partial curve, poor fit].

Q: For CCN(CC(=O)Nc1cc(S(=O)(=O)N2CCOCC2)ccc1Cl)Cc1ccccc1, which Potency is on record?
A: Its Potency is active: 11.7 µM.

Q: With CCOC(=O)/C=C1\Nc2ccccc2OC1=O as the molecule, how does the Potency read?
A: The Potency was inconclusive: 9.28 µM [inhibitor, partial curve, poor fit].

Q: With CN(CC1CCN(CCc2cccc(C(F)(F)F)c2)CC1)C(=O)c1ccc(F)cc1 as the molecule, how does the Potency read?
A: The Potency was active: 13.1 µM.

Q: With O=C(N/N=C/c1ccncc1)c1cc2ccccc2cc1O as the molecule, how does the Potency read?
A: The Potency was inconclusive: 9.28 µM [inhibitor, single point].

Q: For Cc1nc2sc3c(c2c(=O)[nH]1)CCCC3, which Potency is on record?
A: The Potency was inconclusive: 4.15 µM [inhibitor, single point].

Q: With Clc1ncccc1-c1nc2ccccc2n1Cc1ccccc1 as the molecule, how does the Potency read?
A: Its Potency is inconclusive: 0.0037 µM [inhibitor, full curve, poor fit].

Q: For Cc1ccc(C(O)CCc2ccc(N)cc2)cc1 (centres undefined), which Potency is on record?
A: Its Potency is “inactive”.

Q: For CCOC(=O)C(O)(CC(=O)Nc1cc(F)ccc1C)C(F)(F)F (centres undefined), which Potency is on record?
A: The Potency was inconclusive: 2.33 µM [inhibitor, full curve, poor fit].

Q: For COc1ccc(C(=O)Nc2ccc3c(c2)C(=O)NC3=O)cc1, which Potency is on record?
A: Its Potency is “inactive”.

Q: For COC(=O)c1cc(S(=O)(=O)NCCN2CCOCC2)cn1C, which Potency is on record?
A: Its Potency is inconclusive: 20.8 µM [inhibitor, single point].

Q: With CCCC(=O)N1CCN(c2ccc(NC(=O)c3cccs3)cc2Cl)CC1 as the molecule, how does the Potency read?
A: Its Potency is “inactive”.

Q: With O=C(Cn1cnc2c(oc3nc4c(cc32)CCCC4)c1=O)Nc1cccc(Cl)c1 as the molecule, how does the Potency read?
A: Its Potency is inconclusive: 11.7 µM [inhibitor, single point].

Q: Which Potency does the source give for COc1ccc(-c2nn(-c3ccccc3)cc2C(N)=O)cc1OC here?
A: The Potency was active: 14.7 µM.

Q: Which Potency does the source give for Cc1c(C#N)c(SCC(N)=O)nc2c1CCCC2 here?
A: The Potency was active: 9.28 µM.

Q: With CCOc1ccc2nnc(-c3ccc(Br)cc3)n2n1 as the molecule, how does the Potency read?
A: Its Potency is “inactive”.

Q: Which Potency does the source give for O=C(CSc1ccc2nnc(-c3ccncc3)n2n1)Nc1ccccc1F here?
A: The Potency was inconclusive: 0.0522 µM [inhibitor, full curve, poor fit].

Q: With O=C(NC(=S)N1CCCCCC1)c1cccc([N+](=O)[O-])c1 as the molecule, how does the Potency read?
A: The Potency was inconclusive: 18.5 µM [inhibitor, single point].

Q: Which Potency does the source give for COc1ccccc1N1CCN(C2CCCN(C(=O)c3ccnc4ccc(C)cc34)C2)CC1 (centres undefined) here?
A: The Potency was inconclusive: 11.7 µM [inhibitor, single point].

Q: With O=C(O)c1cc(NC(=O)c2ccco2)cc(NC(=O)c2ccco2)c1 as the molecule, how does the Potency read?
A: The Potency was inconclusive: 0.657 µM [inhibitor, partial curve].

Q: With Cc1ccc(SCCOCCN2CCOCC2)cc1 as the molecule, how does the Potency read?
A: The Potency was inconclusive: 18.5 µM [inhibitor, single point].

Q: With CCCn1nc(C(=O)OCc2nc(N)nc(Nc3ccccc3C)n2)c2ccccc2c1=O as the molecule, how does the Potency read?
A: The Potency was inconclusive: 13.1 µM [inhibitor, single point].

Q: For CCc1nn(CC(=O)NCCN2CCN(C)CC2)c(=O)c2cc3c(OC)cccc3n12, which Potency is on record?
A: Its Potency is inconclusive: 10.4 µM [inhibitor, partial curve].

Q: For O=C(CSc1nc2ccccc2c(=O)n1-c1ccc(F)cc1F)Nc1ccc(N2CCOCC2)cc1, which Potency is on record?
A: The Potency was inconclusive: 13.1 µM [inhibitor, single point].

Q: Which Potency does the source give for Cc1c(NS(=O)(=O)c2ccc3c(c2)CCN3C(=O)C2CC2)c(=O)n(-c2ccccc2)n1C here?
A: Its Potency is inconclusive: 11.7 µM [inhibitor, single point].

Q: Which Potency does the source give for Cc1ccc(-c2noc(CCC(=O)NCc3ccc4c(c3)OCO4)n2)cc1 here?
A: The Potency was inconclusive: 5.22 µM [inhibitor, partial curve].

Q: Which Potency does the source give for Cc1onc(-c2ccccc2Cl)c1C(=O)O/N=C(\N)c1ccc([N+](=O)[O-])o1 here?
A: The Potency was active: 14.7 µM.

Q: Which Potency does the source give for O=C(COC(=O)C1CCN(S(=O)(=O)c2cc([N+](=O)[O-])ccc2Cl)CC1)Nc1ncc(Cl)cc1Cl here?
A: Its Potency is inconclusive: 0.0586 µM [inhibitor, full curve, poor fit].

Q: Which Potency does the source give for CC(=O)N1c2ccc(S(=O)(=O)NCCC(=O)NCc3ccc(F)cc3)cc2CC1C (centres undefined) here?
A: The Potency was inconclusive: 1.04 µM [inhibitor, partial curve, poor fit].

Q: With Cc1ccccc1NC(=S)N(CCc1c(C)[nH]c2ccc(F)cc12)Cc1cccnc1 as the molecule, how does the Potency read?
A: The Potency was inconclusive: 5.86 µM [inhibitor, partial curve, poor fit].

Q: For Cc1cc2c3c([nH]c2cc1S(=O)(=O)N1CCC2(CC1)OCCO2)CCCC3=O, which Potency is on record?
A: Its Potency is inconclusive: 3.29 µM [inhibitor, full curve].

Q: For CC(C)C[C@H](NC(=O)N1CCn2c1nc1ccccc12)C(=O)NCc1ccccc1, which Potency is on record?
A: The Potency was inconclusive: 10.4 µM [inhibitor, partial curve, poor fit].

Q: With CCOc1cc(/C=C/C(=O)c2ccc(OC)c(CN3CCOCC3)c2)cc(Br)c1O as the molecule, how does the Potency read?
A: Its Potency is active: 9.28 µM.

Q: With CCc1cc(C(c2cccc(OC)c2)N2CCOCC2)c(NC(=O)c2ccccc2)s1 (centres undefined) as the molecule, how does the Potency read?
A: Its Potency is inconclusive: 0.131 µM [inhibitor, full curve].

Q: Which Potency does the source give for COc1ccccc1NC(=O)CSc1nc2nccnc2c(=O)n1Cc1cccs1 here?
A: Its Potency is inconclusive: 18.5 µM [inhibitor, single point].

Q: With Cc1ccc(NC(=O)CCN2CC(C)OC(C)C2)cc1C (centres undefined) as the molecule, how does the Potency read?
A: The Potency was “inactive”.

Q: Which Potency does the source give for O=C(NCCN1CCC(Cc2ccccc2)CC1)C1CCN(S(=O)(=O)N2CCC3(CC2)OCCO3)CC1 here?
A: Its Potency is “inactive”.

Q: Which Potency does the source give for O=C(Nc1ccc(F)cc1)Nc1nnc(-c2ccncc2)s1 here?
A: The Potency was inconclusive: 2.08 µM [inhibitor, single point].

Q: For CC12CC(c3ccccc3O1)C(C(=O)OCc1ccccc1)C(=O)N2 (centres undefined), which Potency is on record?
A: Its Potency is inconclusive: 9.28 µM [inhibitor, partial curve, poor fit].

Q: With Cc1nnsc1C(=O)N1CCCC(N2CCN(c3cccc(C(F)(F)F)c3)CC2)C1 (centres undefined) as the molecule, how does the Potency read?
A: Its Potency is inconclusive: 2.08 µM [inhibitor, single point].

Q: Which Potency does the source give for Cc1ccc2nsnc2c1N(S(C)(=O)=O)S(C)(=O)=O here?
A: The Potency was “inactive”.

Q: For COc1cccc(NC(=O)COC(=O)c2cccnc2)c1, which Potency is on record?
A: Its Potency is inconclusive: 18.5 µM [inhibitor, single point].

Q: For CCC(=O)NC(Nc1cc(C)ccn1)(C(F)(F)F)C(F)(F)F, which Potency is on record?
A: Its Potency is inconclusive: 11.7 µM [inhibitor, partial curve, poor fit].
